Consider 69 targets from the supplement of paper PMC12595434, “Development of retinoid nuclear receptor pathway antagonists through targeting aldehyde dehydrogenase 1A3” (iScience, 2025).

Amino acid sequences for entries named in this document (tags omitted). A change or cut given only in a name is not applied to a line headed by its entry.
UniProt P06213, whole entry: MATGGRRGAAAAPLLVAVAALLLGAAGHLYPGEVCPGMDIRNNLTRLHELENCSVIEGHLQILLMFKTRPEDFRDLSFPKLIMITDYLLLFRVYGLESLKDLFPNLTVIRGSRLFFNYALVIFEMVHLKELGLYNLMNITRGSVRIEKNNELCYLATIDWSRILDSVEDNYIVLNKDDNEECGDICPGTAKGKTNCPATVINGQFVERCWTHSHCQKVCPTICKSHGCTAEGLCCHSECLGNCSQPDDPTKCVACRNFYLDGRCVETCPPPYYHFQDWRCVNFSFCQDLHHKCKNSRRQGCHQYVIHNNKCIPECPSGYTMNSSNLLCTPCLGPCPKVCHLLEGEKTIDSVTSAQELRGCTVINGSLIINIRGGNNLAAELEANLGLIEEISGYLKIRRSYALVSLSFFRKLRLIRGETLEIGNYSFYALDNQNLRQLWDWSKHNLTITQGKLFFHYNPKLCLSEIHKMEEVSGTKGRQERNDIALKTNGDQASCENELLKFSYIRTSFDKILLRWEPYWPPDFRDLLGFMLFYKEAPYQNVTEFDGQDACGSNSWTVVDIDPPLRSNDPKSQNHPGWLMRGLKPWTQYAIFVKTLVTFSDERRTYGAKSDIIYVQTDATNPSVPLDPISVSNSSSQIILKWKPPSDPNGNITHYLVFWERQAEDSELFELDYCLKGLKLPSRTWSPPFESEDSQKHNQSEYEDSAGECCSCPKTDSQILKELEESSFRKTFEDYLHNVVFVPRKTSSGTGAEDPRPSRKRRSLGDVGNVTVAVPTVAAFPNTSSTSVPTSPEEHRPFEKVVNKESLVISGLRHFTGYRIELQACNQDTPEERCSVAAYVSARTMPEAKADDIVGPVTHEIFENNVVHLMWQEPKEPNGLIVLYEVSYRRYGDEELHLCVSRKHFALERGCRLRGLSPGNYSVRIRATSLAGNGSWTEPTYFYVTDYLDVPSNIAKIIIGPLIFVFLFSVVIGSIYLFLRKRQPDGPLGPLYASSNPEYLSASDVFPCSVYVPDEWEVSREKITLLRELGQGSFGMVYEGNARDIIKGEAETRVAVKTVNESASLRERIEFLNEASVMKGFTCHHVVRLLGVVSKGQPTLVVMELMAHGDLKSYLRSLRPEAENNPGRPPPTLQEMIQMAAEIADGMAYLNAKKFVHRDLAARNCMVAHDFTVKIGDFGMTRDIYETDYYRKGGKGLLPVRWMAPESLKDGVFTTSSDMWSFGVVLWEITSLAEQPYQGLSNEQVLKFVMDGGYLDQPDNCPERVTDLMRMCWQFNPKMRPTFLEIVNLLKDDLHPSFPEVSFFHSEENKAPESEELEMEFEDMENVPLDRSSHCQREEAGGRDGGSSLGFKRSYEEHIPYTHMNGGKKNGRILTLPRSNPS
UniProt P06858: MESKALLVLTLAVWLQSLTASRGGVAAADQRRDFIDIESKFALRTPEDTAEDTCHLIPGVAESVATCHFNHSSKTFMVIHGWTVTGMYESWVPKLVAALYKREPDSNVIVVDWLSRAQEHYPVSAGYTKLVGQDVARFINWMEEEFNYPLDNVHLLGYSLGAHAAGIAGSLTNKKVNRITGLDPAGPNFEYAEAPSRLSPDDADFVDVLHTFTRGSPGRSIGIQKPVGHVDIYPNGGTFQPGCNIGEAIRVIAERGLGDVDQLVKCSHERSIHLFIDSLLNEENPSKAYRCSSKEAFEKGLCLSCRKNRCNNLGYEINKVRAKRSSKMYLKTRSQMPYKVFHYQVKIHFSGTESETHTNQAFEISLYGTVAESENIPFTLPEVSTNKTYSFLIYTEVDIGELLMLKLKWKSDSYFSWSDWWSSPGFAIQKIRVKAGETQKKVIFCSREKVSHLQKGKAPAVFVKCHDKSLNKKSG
UniProt O95167, whole entry: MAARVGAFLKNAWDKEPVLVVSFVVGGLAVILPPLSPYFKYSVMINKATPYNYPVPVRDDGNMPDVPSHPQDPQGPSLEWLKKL
UniProt O75914, whole entry, looked up: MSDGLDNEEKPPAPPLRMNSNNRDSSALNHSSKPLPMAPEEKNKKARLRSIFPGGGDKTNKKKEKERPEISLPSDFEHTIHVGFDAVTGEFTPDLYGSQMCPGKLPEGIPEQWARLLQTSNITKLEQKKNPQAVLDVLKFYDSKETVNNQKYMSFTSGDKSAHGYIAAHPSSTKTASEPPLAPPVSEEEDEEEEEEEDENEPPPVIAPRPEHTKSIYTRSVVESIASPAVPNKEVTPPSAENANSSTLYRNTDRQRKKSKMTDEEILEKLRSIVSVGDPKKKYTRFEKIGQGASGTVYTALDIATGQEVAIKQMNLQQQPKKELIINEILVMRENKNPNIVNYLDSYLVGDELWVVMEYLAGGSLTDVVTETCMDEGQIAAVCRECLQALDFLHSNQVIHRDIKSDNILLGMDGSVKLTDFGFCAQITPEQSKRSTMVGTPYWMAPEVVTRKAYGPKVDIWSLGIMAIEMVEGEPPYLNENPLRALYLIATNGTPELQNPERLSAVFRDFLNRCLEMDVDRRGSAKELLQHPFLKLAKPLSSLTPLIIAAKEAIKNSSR
UniProt O96005: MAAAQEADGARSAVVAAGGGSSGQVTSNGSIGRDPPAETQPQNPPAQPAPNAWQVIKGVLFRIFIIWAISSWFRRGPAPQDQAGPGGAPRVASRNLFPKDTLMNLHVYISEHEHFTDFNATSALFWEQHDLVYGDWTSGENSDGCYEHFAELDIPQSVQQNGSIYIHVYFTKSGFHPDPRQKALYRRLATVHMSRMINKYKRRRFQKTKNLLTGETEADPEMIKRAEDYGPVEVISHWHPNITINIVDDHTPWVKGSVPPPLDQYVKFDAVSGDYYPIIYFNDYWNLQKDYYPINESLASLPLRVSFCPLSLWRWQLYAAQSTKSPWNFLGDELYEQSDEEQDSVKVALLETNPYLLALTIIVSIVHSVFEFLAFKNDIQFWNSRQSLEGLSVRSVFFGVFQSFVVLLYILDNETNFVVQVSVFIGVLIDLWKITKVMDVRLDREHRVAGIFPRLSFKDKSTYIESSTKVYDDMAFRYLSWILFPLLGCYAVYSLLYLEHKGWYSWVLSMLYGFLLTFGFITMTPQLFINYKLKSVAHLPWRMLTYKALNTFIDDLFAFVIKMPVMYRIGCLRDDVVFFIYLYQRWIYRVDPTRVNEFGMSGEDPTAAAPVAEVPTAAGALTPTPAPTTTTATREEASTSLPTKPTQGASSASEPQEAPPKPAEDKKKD
UniProt O95365: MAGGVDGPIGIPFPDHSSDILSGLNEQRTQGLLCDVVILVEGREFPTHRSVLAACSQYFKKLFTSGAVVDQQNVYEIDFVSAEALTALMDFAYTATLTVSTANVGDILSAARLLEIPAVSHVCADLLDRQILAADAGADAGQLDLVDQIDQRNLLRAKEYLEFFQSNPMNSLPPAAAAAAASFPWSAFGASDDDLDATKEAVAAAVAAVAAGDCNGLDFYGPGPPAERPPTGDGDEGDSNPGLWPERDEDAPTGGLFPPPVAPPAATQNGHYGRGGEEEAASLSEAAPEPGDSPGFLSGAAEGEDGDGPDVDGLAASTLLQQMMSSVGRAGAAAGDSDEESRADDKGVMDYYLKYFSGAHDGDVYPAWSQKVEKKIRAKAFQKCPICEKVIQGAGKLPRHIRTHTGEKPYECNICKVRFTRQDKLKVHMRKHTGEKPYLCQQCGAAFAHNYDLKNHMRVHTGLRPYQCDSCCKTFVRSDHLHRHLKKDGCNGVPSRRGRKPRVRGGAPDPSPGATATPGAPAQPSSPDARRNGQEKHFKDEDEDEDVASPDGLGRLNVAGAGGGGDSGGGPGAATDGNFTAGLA
UniProt P00558: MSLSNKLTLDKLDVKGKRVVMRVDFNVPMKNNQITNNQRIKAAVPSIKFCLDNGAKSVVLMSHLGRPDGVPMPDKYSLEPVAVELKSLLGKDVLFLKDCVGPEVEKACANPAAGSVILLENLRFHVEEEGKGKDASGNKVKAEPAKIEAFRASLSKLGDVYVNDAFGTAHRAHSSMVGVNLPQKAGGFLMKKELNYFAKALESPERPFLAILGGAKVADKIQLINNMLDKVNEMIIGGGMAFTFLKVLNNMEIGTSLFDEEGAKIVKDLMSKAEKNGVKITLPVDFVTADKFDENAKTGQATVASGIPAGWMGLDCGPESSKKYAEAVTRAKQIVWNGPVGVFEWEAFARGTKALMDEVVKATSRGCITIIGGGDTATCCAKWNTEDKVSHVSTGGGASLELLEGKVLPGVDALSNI
UniProt O94906: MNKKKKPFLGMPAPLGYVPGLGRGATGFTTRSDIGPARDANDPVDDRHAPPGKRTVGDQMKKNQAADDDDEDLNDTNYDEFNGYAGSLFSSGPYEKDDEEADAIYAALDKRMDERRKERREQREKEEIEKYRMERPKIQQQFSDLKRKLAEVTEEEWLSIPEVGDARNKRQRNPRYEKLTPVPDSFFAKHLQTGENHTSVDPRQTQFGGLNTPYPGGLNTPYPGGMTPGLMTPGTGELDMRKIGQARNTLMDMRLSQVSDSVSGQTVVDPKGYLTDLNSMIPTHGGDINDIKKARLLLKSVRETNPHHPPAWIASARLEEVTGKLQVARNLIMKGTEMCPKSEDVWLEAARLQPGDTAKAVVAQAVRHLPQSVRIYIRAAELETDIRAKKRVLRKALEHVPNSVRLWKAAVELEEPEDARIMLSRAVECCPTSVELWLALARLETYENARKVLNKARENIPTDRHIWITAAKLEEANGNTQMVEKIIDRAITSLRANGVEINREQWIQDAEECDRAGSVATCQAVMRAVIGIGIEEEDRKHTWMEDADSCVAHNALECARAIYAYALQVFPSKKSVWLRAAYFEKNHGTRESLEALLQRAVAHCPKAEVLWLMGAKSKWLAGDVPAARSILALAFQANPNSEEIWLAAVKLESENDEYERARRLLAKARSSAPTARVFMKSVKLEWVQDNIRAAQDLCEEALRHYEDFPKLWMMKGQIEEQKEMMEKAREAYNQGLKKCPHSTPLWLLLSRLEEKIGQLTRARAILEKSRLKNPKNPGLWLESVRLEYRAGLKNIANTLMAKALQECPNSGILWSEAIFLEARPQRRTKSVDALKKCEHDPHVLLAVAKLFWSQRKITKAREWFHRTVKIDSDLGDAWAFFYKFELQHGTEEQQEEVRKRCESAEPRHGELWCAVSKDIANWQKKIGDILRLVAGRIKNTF
UniProt P05386, whole entry: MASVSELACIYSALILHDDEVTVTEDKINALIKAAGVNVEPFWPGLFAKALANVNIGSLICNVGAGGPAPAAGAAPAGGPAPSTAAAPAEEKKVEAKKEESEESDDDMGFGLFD
UniProt O94992, whole entry: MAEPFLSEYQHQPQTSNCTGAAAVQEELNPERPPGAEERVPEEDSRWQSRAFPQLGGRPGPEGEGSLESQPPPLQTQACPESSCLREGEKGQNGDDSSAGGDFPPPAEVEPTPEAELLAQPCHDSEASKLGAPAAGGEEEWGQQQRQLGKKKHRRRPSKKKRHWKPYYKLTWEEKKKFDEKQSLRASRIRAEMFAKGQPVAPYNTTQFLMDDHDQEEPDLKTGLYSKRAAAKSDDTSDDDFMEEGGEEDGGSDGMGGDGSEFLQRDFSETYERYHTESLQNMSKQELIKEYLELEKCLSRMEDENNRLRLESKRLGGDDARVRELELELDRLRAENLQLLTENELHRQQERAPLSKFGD
UniProt P06400: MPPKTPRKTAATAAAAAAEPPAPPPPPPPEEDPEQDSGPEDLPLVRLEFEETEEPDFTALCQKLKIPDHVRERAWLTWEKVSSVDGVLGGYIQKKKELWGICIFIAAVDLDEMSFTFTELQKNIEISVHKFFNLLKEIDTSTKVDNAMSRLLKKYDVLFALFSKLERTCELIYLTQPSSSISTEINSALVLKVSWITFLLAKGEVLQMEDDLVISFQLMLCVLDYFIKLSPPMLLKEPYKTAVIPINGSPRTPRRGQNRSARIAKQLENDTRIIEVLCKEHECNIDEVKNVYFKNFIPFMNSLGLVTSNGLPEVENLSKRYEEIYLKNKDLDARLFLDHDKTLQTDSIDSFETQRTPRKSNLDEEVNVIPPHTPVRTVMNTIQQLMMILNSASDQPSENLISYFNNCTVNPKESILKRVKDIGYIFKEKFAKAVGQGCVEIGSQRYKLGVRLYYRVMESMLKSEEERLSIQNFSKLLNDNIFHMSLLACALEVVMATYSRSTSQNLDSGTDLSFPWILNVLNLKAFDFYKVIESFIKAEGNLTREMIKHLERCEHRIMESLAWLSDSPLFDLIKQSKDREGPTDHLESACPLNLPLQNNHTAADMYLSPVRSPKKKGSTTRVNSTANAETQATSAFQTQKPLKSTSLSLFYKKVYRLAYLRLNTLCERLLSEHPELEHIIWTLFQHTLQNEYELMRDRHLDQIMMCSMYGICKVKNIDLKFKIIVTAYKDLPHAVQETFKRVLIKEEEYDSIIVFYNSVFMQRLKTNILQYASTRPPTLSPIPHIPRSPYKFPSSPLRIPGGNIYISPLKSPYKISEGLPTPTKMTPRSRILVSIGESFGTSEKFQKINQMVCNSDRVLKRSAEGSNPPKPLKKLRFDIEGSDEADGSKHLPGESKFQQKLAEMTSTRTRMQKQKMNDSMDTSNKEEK

This is one part of the list. Single values of this set are uncertain.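 Many melting curves are irregular; where none melted, Tm was taken as 64 °C.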

Compound in the experiment: CCc1cnccc1C(=O)Nc1cc2c(cc1F)NC(=O)CC2
The experiment is described as follows: melting temperature shift (DMSO Tm minus MBE1-treated Tm) in cellular thermal proteome profiling; higher = less thermal stabilization by MBE1 (negative = stabilized by MBE1). The note with it: A375.

For the target INSR (UniProt P06213), the melting temperature shift by setting is: (MBE1 concentration: 100 nM) -0.551 °C; (MBE1 concentration: 1 uM) 0.212 °C.

ATP1A1 (UniProt P05023): the melting temperature shift is -0.971 °C (MBE1 concentration: 100 nM) and -0.525 °C (MBE1 concentration: 1 uM).

With UniProt P00403, the melting temperature shift by setting is: (MBE1 concentration: 100 nM) -1.55 °C; (MBE1 concentration: 1 uM) 1.83 °C.

With NR3C1 (UniProt P04150), the melting temperature shift reads like this: (MBE1 concentration: 100 nM) -0.724 °C; (MBE1 concentration: 1 uM) -0.16 °C.

ASL (UniProt P04424): the melting temperature shift is -0.653 °C (MBE1 concentration: 100 nM) and 0.195 °C (MBE1 concentration: 1 uM).

For UniProt O75925, the melting temperature shift is -0.673 °C (MBE1 concentration: 100 nM) and -0.461 °C (MBE1 concentration: 1 uM).

With MTA2 (UniProt O94776), the melting temperature shift is -0.658 °C (MBE1 concentration: 100 nM) and -0.08 °C (MBE1 concentration: 1 uM).

RPN2 (UniProt P04844): the melting temperature shift is, setting by setting: (MBE1 concentration: 100 nM) -0.711 °C; (MBE1 concentration: 1 uM) 0.456 °C.

As to USP1 (UniProt O94782), the melting temperature shift is 0.174 °C (MBE1 concentration: 100 nM) and -0.577 °C (MBE1 concentration: 1 uM).

TRIO (UniProt O75962): the melting temperature shift reads like this: (MBE1 concentration: 100 nM) 0.132 °C; (MBE1 concentration: 1 uM) -0.56 °C.

Take UniProt P05412: the melting temperature shift (MBE1 concentration: 100 nM) is -0.617 °C and the melting temperature shift (MBE1 concentration: 1 uM) was -0.122 °C.

Regarding TDP2 (UniProt O95551), the melting temperature shift came out at 1.7 °C (MBE1 concentration: 100 nM) and 0.409 °C (MBE1 concentration: 1 uM).

On to UniProt P02751, for which the melting temperature shift reads like this: (MBE1 concentration: 100 nM) -0.731 °C; (MBE1 concentration: 1 uM) 1.4 °C.

Take TRIM16 (UniProt O95361): the melting temperature shift worked out at 3.87 °C (MBE1 concentration: 100 nM) and 2.8 °C (MBE1 concentration: 1 uM).

In the case of CAPNS1 (UniProt P04632), the melting temperature shift reads like this: (MBE1 concentration: 100 nM) -1.04 °C; (MBE1 concentration: 1 uM) -1.17 °C.

On to TOX4 (UniProt O94842), for which the melting temperature shift (MBE1 concentration: 100 nM) was -0.684 °C and the melting temperature shift (MBE1 concentration: 1 uM) came to 0.11 °C.

As to UniProt P06858, the melting temperature shift reads like this: (MBE1 concentration: 100 nM) -0.476 °C; (MBE1 concentration: 1 uM) 1.3 °C.

For the target RPLP2 (UniProt P05387), the melting temperature shift (MBE1 concentration: 100 nM) is -2.8 °C and the melting temperature shift (MBE1 concentration: 1 uM) is -4.77 °C.

With DDAH2 (UniProt O95865), the melting temperature shift (MBE1 concentration: 100 nM) is -0.336 °C and the melting temperature shift (MBE1 concentration: 1 uM) stood at 0.121 °C.

With UniProt P00750, the melting temperature shift runs as follows: (MBE1 concentration: 100 nM) -1.02 °C; (MBE1 concentration: 1 uM) -0.501 °C.

Regarding SOD1 (UniProt P00441), the melting temperature shift (MBE1 concentration: 100 nM) is -8.46 °C and the melting temperature shift (MBE1 concentration: 1 uM) was -1.35 °C.

In the case of GAPDH (UniProt P04406), the melting temperature shift by setting is: (MBE1 concentration: 100 nM) -1.31 °C; (MBE1 concentration: 1 uM) -2.47 °C.

Turning to UniProt P04066, the melting temperature shift is -2.39 °C (MBE1 concentration: 100 nM) and -0.165 °C (MBE1 concentration: 1 uM).

As to UniProt O95167, the melting temperature shift by setting is: (MBE1 concentration: 100 nM) 0.177 °C; (MBE1 concentration: 1 uM) 0.379 °C.

For ATE1 (UniProt O95260), the melting temperature shift by setting is: (MBE1 concentration: 100 nM) 0.495 °C; (MBE1 concentration: 1 uM) 0.305 °C.

Turning to CAT (UniProt P04040), the melting temperature shift is, setting by setting: (MBE1 concentration: 100 nM) -1.75 °C; (MBE1 concentration: 1 uM) -2.02 °C.

With PAK3 (UniProt O75914), the melting temperature shift is -0.948 °C (MBE1 concentration: 100 nM) and -1.33 °C (MBE1 concentration: 1 uM).

CLPTM1 (UniProt O96005): the melting temperature shift reads like this: (MBE1 concentration: 100 nM) -0.952 °C; (MBE1 concentration: 1 uM) 0.255 °C.

Turning to CPD (UniProt O75976), the melting temperature shift (MBE1 concentration: 100 nM) is -1.02 °C and the melting temperature shift (MBE1 concentration: 1 uM) was -0.843 °C.

On to PPP1R3D (UniProt O95685), for which the melting temperature shift was 1.37 °C (MBE1 concentration: 100 nM) and -0.598 °C (MBE1 concentration: 1 uM).

For GGPS1 (UniProt O95749), the melting temperature shift reads like this: (MBE1 concentration: 100 nM) -0.443 °C; (MBE1 concentration: 1 uM) -0.148 °C.

In the case of UniProt P04264, the melting temperature shift is, setting by setting: (MBE1 concentration: 100 nM) 5.83 °C; (MBE1 concentration: 1 uM) 10.3 °C.

As for ZBTB7A (UniProt O95365), the melting temperature shift turned out to be 0.208 °C (MBE1 concentration: 100 nM) and 2.69 °C (MBE1 concentration: 1 uM).

With SBF1 (UniProt O95248), the melting temperature shift was 0.342 °C (MBE1 concentration: 100 nM) and -0.58 °C (MBE1 concentration: 1 uM).

Consider TOP3B (UniProt O95985), for which the melting temperature shift (MBE1 concentration: 100 nM) is 0.226 °C and the melting temperature shift (MBE1 concentration: 1 uM) was -0.421 °C.

GBA (UniProt P04062): the melting temperature shift by setting is: (MBE1 concentration: 100 nM) -0.154 °C; (MBE1 concentration: 1 uM) -0.178 °C.

STAU1 (UniProt O95793): the melting temperature shift (MBE1 concentration: 100 nM) was -0.57 °C and the melting temperature shift (MBE1 concentration: 1 uM) came to 0.0122 °C.

For the target APP (UniProt P05067), the melting temperature shift (MBE1 concentration: 100 nM) is -1.56 °C and the melting temperature shift (MBE1 concentration: 1 uM) is -0.141 °C.

Regarding PGK1 (UniProt P00558), the melting temperature shift is -0.409 °C (MBE1 concentration: 100 nM) and 0.463 °C (MBE1 concentration: 1 uM).

In the case of AP2A1 (UniProt O95782), the melting temperature shift (MBE1 concentration: 100 nM) was -0.6 °C and the melting temperature shift (MBE1 concentration: 1 uM) was -0.269 °C.

Consider UniProt O75928, for which the melting temperature shift runs as follows: (MBE1 concentration: 100 nM) -1.49 °C; (MBE1 concentration: 1 uM) 0.00611 °C.

Consider TTC4 (UniProt O95801), for which the melting temperature shift was 0.898 °C (MBE1 concentration: 100 nM) and -0.0733 °C (MBE1 concentration: 1 uM).

Regarding ENDOD1 (UniProt O94919), the melting temperature shift (MBE1 concentration: 100 nM) is -2.2 °C and the melting temperature shift (MBE1 concentration: 1 uM) is -0.726 °C.

For NDUFB10 (UniProt O96000), the melting temperature shift (MBE1 concentration: 100 nM) was -1.12 °C and the melting temperature shift (MBE1 concentration: 1 uM) is -0.724 °C.

PRPF6 (UniProt O94906): the melting temperature shift was -0.0769 °C (MBE1 concentration: 100 nM) and -0.461 °C (MBE1 concentration: 1 uM).

HERC2 (UniProt O95714): the melting temperature shift runs as follows: (MBE1 concentration: 100 nM) -1.3 °C; (MBE1 concentration: 1 uM) -0.433 °C.

Regarding UniProt P07093, the melting temperature shift by setting is: (MBE1 concentration: 100 nM) -0.738 °C; (MBE1 concentration: 1 uM) -1.87 °C.

Regarding AIFM1 (UniProt O95831), the melting temperature shift (MBE1 concentration: 100 nM) is -0.476 °C and the melting temperature shift (MBE1 concentration: 1 uM) is -0.354 °C.

With PCCA (UniProt P05165), the melting temperature shift is, setting by setting: (MBE1 concentration: 100 nM) -0.355 °C; (MBE1 concentration: 1 uM) 0.644 °C.

Turning to LMNA (UniProt P02545), the melting temperature shift runs as follows: (MBE1 concentration: 100 nM) -0.516 °C; (MBE1 concentration: 1 uM) -0.463 °C.

As for FMNL1 (UniProt O95466), the melting temperature shift runs as follows: (MBE1 concentration: 100 nM) 0.919 °C; (MBE1 concentration: 1 uM) 2.51 °C.

Take FRYL (UniProt O94915): the melting temperature shift (MBE1 concentration: 100 nM) is -0.289 °C and the melting temperature shift (MBE1 concentration: 1 uM) worked out at 0.47 °C.

Turning to PCF11 (UniProt O94913), the melting temperature shift was -0.0769 °C (MBE1 concentration: 100 nM) and -0.583 °C (MBE1 concentration: 1 uM).

Consider PSMG1 (UniProt O95456), for which the melting temperature shift runs as follows: (MBE1 concentration: 100 nM) -0.446 °C; (MBE1 concentration: 1 uM) 0.262 °C.

Consider EPN2 (UniProt O95208), for which the melting temperature shift (MBE1 concentration: 100 nM) is -1.55 °C and the melting temperature shift (MBE1 concentration: 1 uM) is -0.202 °C.

Regarding RPLP1 (UniProt P05386), the melting temperature shift was 0.385 °C (MBE1 concentration: 100 nM) and -0.537 °C (MBE1 concentration: 1 uM).

For the target UBXN7 (UniProt O94888), the melting temperature shift is -1.19 °C (MBE1 concentration: 100 nM) and 0.427 °C (MBE1 concentration: 1 uM).

DXO (UniProt O77932): the melting temperature shift runs as follows: (MBE1 concentration: 100 nM) -0.177 °C; (MBE1 concentration: 1 uM) 1.5 °C.

Take CNOT4 (UniProt O95628): the melting temperature shift reads like this: (MBE1 concentration: 100 nM) -0.241 °C; (MBE1 concentration: 1 uM) -0.101 °C.

Take FARS2 (UniProt O95363): the melting temperature shift is, setting by setting: (MBE1 concentration: 100 nM) 0.475 °C; (MBE1 concentration: 1 uM) -0.409 °C.

Consider HEXIM1 (UniProt O94992), for which the melting temperature shift reads like this: (MBE1 concentration: 100 nM) -6.18 °C; (MBE1 concentration: 1 uM) -3.36 °C.

As to EGFR (UniProt P00533), the melting temperature shift (MBE1 concentration: 100 nM) was -0.577 °C and the melting temperature shift (MBE1 concentration: 1 uM) came to 0.404 °C.

Turning to UniProt O94761, the melting temperature shift is -0.47 °C (MBE1 concentration: 100 nM) and 1.8 °C (MBE1 concentration: 1 uM).

Consider RB1 (UniProt P06400), for which the melting temperature shift is -0.812 °C (MBE1 concentration: 100 nM) and -0.0134 °C (MBE1 concentration: 1 uM).

Turning to RBBP9 (UniProt O75884), the melting temperature shift is 2.64 °C (MBE1 concentration: 100 nM) and -0.0134 °C (MBE1 concentration: 1 uM).

For the target GSN (UniProt P06396), the melting temperature shift (MBE1 concentration: 100 nM) was -0.557 °C and the melting temperature shift (MBE1 concentration: 1 uM) was -0.0335 °C.

PGM3 (UniProt O95394): the melting temperature shift (MBE1 concentration: 100 nM) turned out to be 0.908 °C and the melting temperature shift (MBE1 concentration: 1 uM) came out at 0.891 °C.

On to OAT (UniProt P04181), for which the melting temperature shift was -1.18 °C (MBE1 concentration: 100 nM) and -0.0916 °C (MBE1 concentration: 1 uM).

As to IPO13 (UniProt O94829), the melting temperature shift runs as follows: (MBE1 concentration: 100 nM) 1.09 °C; (MBE1 concentration: 1 uM) 0.397 °C.
